Part of at least one peptide drawing is inferred or uncertain, most often the ends. Residues, ends and D or L forms follow the SMILES beside them.
Columns and labels:
MC3T3 cells = test: MC3T3 chemotaxis in 48-well Boyden chambers; format: cell-based, murine
MC3T3 murine osteoblasts = test: Osteoblast adhesion to peptide-precoated polystyrene plates (N-acetyl-hexosaminidase activity assay); format: cell-based
[1] = precoating concentration 10 μM, relative to no peptide precoating, FIG. 1
[2] = precoating concentrations of 100 μM to 250 μM

Structure (SMILES)	migration above control (MC3T3 cells; peptide at 100 nM)	adhesion of MC3T3 cells to polystyrene plates (MC3T3 murine osteoblasts; [1])	adhesion of MC3T3 cells to polystyrene plates (MC3T3 murine osteoblasts; [2])	increase over control migration level (MC3T3 cells; peptide at 10 nM)	increase over control migration level (MC3T3 cells; peptide at 1 μM)	chemoattraction of MC3T3 cells (migration) (MC3T3 cells; 18 hours, FIG. 2)
N=C(N)NCCC[C@H](N)C(=O)NCC(=O)N[C@@H](CC(=O)O)C(N)=O [RGDamide, reference compound]	60%	not stimulatory	to a lesser degree			
N=C(N)NCCC[C@H](NC(=O)[C@@H]1CCCN1C(=O)[C@H](CCC(=O)O)NC(=O)CNC(=O)[C@H](CC(N)=O)NC(=O)[C@@H](N)CCC(=O)O)C(=O)NCC(=O)N[C@@H](CC(=O)O)C(=O)N[C@@H](CC(N)=O)C(=O)N[C@@H](Cc1ccc(O)cc1)C(N)=O [SEQ ID NO:6, ENGEPRGDNYamide] (H-ENGEPRGDNY-NH2)				61%	40%	
C[C@H](NC(=O)[C@H](CCCNC(=N)N)NC(=O)[C@H](Cc1ccc(O)cc1)NC(=O)[C@H](CC(N)=O)NC(=O)[C@H](CC(=O)O)NC(=O)CNC(=O)[C@H](CCCNC(=N)N)NC(=O)[C@@H]1CCCN1C(=O)[C@H](CCC(=O)O)NC(=O)CNC(=O)[C@H](CC(N)=O)NC(=O)[C@H](CCC(=O)O)NC(=O)[C@H](CO)NC(=O)[C@H](CCC(=O)O)NC(=O)[C@@H](N)Cc1ccc(O)cc1)C(=O)N[C@@H](Cc1ccc(O)cc1)C(N)=O [SEQ ID NO:7, YESENGEPRGDNYRAYamide] (H-YESENGEPRGDNYRAY-NH2)			equal to that of peptide SEQ ID NO:8	33%	11%	
C[C@H](NC(=O)CN)C(=O)N[C@@H](CC(N)=O)C(=O)N[C@@H](Cc1ccc(O)cc1)C(N)=O [GANYamide, reference compound] (H-GANY-NH2)		inhibited MC3T3 adhesion				not stimulatory
N=C(N)NCCC[C@H](NC(=O)[C@@H]1CCCN1C(=O)[C@H](CCC(=O)O)NC(=O)CN)C(=O)NCC(=O)N[C@@H](CC(=O)O)C(N)=O [SEQ ID NO:5, GEPRGDamide] (H-GEPRGD-NH2)		not stimulatory	did enhance adhesion			

— US6291428A, “Peptides which promote bone-forming cell attraction and adhesion” (The Hospital for Special Surgery, priority 1999, dated 2001)
